Laboratory results reported in PMC10345115.
No constants are given. Whether binding was seen depends on the method and setting. In cells and extracts the contact can be indirect. Some results given as binding are weak or reduced against the parent protein; the word gives no strength. Where a sequence is shown, tags or fusion partners need not be part of it.

The chains behind the UniProt entries cited, without tags or fusion partners.
UniProt Q92731: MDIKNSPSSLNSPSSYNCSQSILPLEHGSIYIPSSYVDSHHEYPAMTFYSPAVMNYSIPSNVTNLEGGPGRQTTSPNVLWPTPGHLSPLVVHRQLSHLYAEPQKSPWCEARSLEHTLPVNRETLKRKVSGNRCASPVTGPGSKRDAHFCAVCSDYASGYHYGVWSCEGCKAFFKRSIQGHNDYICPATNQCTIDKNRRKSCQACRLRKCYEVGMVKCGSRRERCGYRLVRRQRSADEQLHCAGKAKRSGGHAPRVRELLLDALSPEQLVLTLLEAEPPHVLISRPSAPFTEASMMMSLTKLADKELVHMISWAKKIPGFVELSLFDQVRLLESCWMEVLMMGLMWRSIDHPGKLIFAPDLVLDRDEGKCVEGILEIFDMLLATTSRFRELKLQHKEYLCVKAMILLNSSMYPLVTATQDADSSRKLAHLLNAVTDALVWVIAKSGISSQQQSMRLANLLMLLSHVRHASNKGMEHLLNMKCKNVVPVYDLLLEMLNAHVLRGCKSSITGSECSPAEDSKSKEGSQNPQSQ

Experiments:
GST-WFDC3 = biological target: T1, GST-WFDC3 (UniProt Q8IUB2); experiment: pull-down; in vitro GST pull-down with bacterially expressed GST/His-fused proteins; GST-WFDC3 or GST as bait
T1 sequence: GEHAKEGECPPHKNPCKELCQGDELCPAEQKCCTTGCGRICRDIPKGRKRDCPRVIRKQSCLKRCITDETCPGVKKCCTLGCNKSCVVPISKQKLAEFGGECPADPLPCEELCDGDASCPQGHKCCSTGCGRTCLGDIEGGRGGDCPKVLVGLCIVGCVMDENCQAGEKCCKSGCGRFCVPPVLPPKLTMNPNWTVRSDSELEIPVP

Flag-WFDC3 = biological target: T2, Flag-WFDC3 (UniProt Q8IUB2); experiment: co-IP; 500 µg total protein from transfected cells; immunoprecipitation with 1 µg c-Myc antibody or Flag antibody at 4 °C overnight, Protein A Sepharose beads; western blot
T2 sequence: T1 sequence

His-tagged ERβ (from UniProt Q92731 1-530)
binding (GST-WFDC3): binds

Myc-ERβ (from UniProt Q92731 1-530)
binding (Flag-WFDC3): binds
